The target of the assay is T1, Fas ligand (UniProt P48023 130-281, limits assumed).
T1 construct: Detected by immunoblotting with an antibody to FasL (Pharmingen)
T1 sequence (looked up): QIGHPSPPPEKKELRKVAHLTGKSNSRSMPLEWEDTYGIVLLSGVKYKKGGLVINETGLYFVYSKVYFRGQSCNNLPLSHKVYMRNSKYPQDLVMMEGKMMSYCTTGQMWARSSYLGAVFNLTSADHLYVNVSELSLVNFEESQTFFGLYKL
Nature of the assay: receptor-Fc / ligand co-precipitation, immunoblot.

No constants are given. Whether binding was seen depends on the method and setting. In cells and extracts the contact can be indirect. Some binding calls cover weakened binding; strength is not graded here.

B1: CD95-Fc (extracellular domain of CD-95 / Fas expressed as an Fc fusion) (Fc fusion, UniProt P25445 26-173, looked up)
chain: QVTDINSKGLELRKTVTTVETQNLEGLHHDGQFCHKPCPPGERKARDCTVNGDEPDCVPCQEGKEYTDKAHFSSKCRRCRLCDEGHGLEVEINCTRTQNTKCRCKPNFFCNSTVCEHCDPCTKCEHGIIKECTLTSNTKCKEEGSRSN
notes: extracellular domain; also called Fas-Fc; Fc-extracellular domain of Fas; not shown: Fc portion of human IgG
Consider B1, for which the binding entry was “binds”.

These data come from patent publication US20080241155A1 (Human Genome Sciences, published 2008).
